The values are deposited in ChEMBL (CHEMBL3988442, “University of Dundee, Small-Polar-MMV Screening Library” (2021)).

Each number is a percent effect as filed. How 0% and 100% were set is not recorded. Most values in the screen are low, and negative values occur. The compounds are a random part of those screened. Two or more numbers in one place are separate tests of the same structure; such repeats can differ widely. A dash means the value is not listed here; it may have been measured.

T. brucei: 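Whole-parasite assay of Trypanosoma brucei over 72 hours; the read-out is not stated. Compounds at 30 µM. Direction is inferred from retests: higher values go with stronger inhibition. Values scatter widely below zero; nearly all retest evidence comes from the higher of the two concentrations used. About 64,000 compounds were tested under these conditions; 1.5% (about 940) showed 50% or more at least once.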
Leishmania in macrophages: 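Cell assay of Leishmania donovani living inside macrophages; the read-out is not stated. Tested at 30 µM. Direction is inferred from retests: higher values go with stronger inhibition. Of about 69,000 compounds tested this way, about 1,000 (1.5%) reached 50% or more in at least one test.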
Toxoplasma: 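Assay of Toxoplasma gondii numbers, read through their beta-galactosidase reporter with a colour substrate. Compounds at 10 µM. The record gives no direction; the compounds picked for IC50 retests had high values, so higher reads as fewer parasites. Of about 67,000 compounds tested this way, about 260 (0.38%) reached 50% or more in at least one test.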

| structure | T. brucei | Leishmania in macrophages | Toxoplasma |
|---|---|---|---|
| `CC(C)N(C)Cc1cncc2c1CCN(C(=O)c1ccc[nH]1)C2.Cl.Cl` | -25.2% | 2.667% and -5.007% | -18.2% |
| `CN1CCN(CC(CC(=O)Nc2ccc(Cl)cc2)C(=O)O)CC1` (stereo not shown) | -0.6006% | 8.207% | 4.912% |
| `[H][C@]12CC[C@]([H])(CN(C(=O)c3ccncc3)C1)N(S(=O)(=O)c1cccnc1)C2` | -9.354% | -7.587% | -1.608% |
| `CN(C)c1ccc(CNC2=NCCCN2)cc1.I` | 99.22% | 8.707% | 2.686% |
| `CC(=O)N1CCc2nc(N3CCCC3)nc(C)c2C1` | -77.87% | 12.14% | -12.65% |
| `CC(C(=O)Nc1cc(F)ccc1F)N1CCN(Cc2ncc[nH]2)CC1` (stereo not shown) | -31.01% | -2.679% | -26.34% |
| `Cc1csc(CNC(=O)NCC(O)c2ccc(F)c(F)c2)n1` (stereo not shown) | -41.27% | 27.27% | -3.666% |
| `CNc1ccc(CC2CCCN(Cc3c[nH]cn3)C2)nn1` (stereo not shown) | - | 16.37% | - |
| `COCC(=O)Nc1nn(Cc2ccc(F)cc2)cc1Cl` | -14.9% | 0.7764% | 1.142% |
| `Cc1cc(C(=O)N2CCN(Cc3ccsc3)CC2)c(C)n1C1CC1` | 9.225% | 29.87% | -0.03595% |
| `CCC(=O)N1CCC(c2nc(C)c3c(n2)N(C)CCC3)CC1` | - | 31.8% | - |
| `Fc1ccc(C2(CNC3=NCCN3)CCCC2)cc1.I` | -21.25% | 17.02% | -8.489% |
| `Cc1nc(C)n(CC2CCCN2c2ccnc(-c3ccccc3)n2)n1` (stereo not shown) | 0.03474% | -6.883% | 1.741% |
| `COc1cc(CNc2nc(C3CC3)no2)cc(OC)c1OC` | -26.1% | -17.7% | 0.8291% |
| `Cc1cc(CS(=O)(=O)C(C)c2ccc(F)cc2)on1` (stereo not shown) | -20.86% | 3.873% | 5.605% |
| `Cc1nc(C)n(CC2CCCN2Cc2cn3cc(Cl)ccc3n2)n1` (stereo not shown) | 10.31% | 8.578% | 13.34% |
| `CCCC(O)CN1CC(C)(C)CN(C(=O)c2ccc(Cl)cc2)CC1=O` (stereo not shown) | 10.32% | 15.65% | -1.566% |
| `O=C(Nc1ccc(S(=O)(=O)Nc2ccccc2)cc1)N1CCCC1` | -5.209% | 3.688% | -7.081% |
| `O=C(O)C(F)(F)F.c1cncc(N2CCOCC3(CCCN(c4nncs4)C3)C2)c1` (stereo not shown) | 1.277% | 2.897% | -4.168% |
| `Cc1nc(CN(Cc2ccccc2)C2CCS(=O)(=O)C2)oc1C` (stereo not shown) | 20.29% | 14.75% | -62.21% |
| `O=C1CCC2(CCN(CC[C@H](O)c3ccccc3)CC2)CN1CCO` | -42.79% | 14.25% | 0.5175% |
| `COCc1cccc(CNc2cnn(C(C)(C)C)c(=O)c2Cl)c1` | -65.79% | 46.69% | 4.162% |
| `CC(NS(N)(=O)=O)c1ccc(OCc2ccc(F)cc2)cc1` (stereo not shown) | -1.328% | 4.498% | 4.414% |
| `CCN1Cc2cc(F)ccc2N(C(C)=O)CCC1=O` | -9.746% | 6.308% | -8.397% |
| `CN(C)C(=O)CN1CCn2cc(Cn3cccn3)nc2C1.O=C(O)C(F)(F)F.O=C(O)C(F)(F)F` | -43.32% | 10.86% | 4.698% |
| `Cc1occc1C(=O)N1CCOCC2(CCN(C3CCOCC3)C2)C1.O=C(O)C(F)(F)F` (stereo not shown) | -0.9732% | 21.42% | -13.14% |
| `Cc1nc(C)n(CC2CN(CCOc3ccc(C#N)cc3)CCO2)n1` (stereo not shown) | -7.085% | 0.2767% | -5.068% |
| `CN1CC(=O)N(c2ccsc2)CC12CCN(C(=O)c1ccc[nH]1)C2` (stereo not shown) | -32.64% | 13.31% | -1.235% |
| `CCCc1noc(CCCC(=O)N2CCCC2c2cnn(C)c2)n1` (stereo not shown) | - | -4.602% | 0.3408% |
| `O=C(O)C(F)(F)F.c1cnc(N2Cc3nccn3CC(COc3cccnc3)C2)nc1` (stereo not shown) | -0.348% | 5.012% | 9.697% |
| `OCCn1nccc1C1CCN(CCOc2ccc(Cl)cc2)CC1` | 19.82% | 43.73% | 2.999% |
| `O=C(CC1CCCC1)N1CCC(c2nnc(-c3ccccn3)o2)CC1` | -24.35% | -29.57% | 9.202% |
| `Cc1ccccc1N1CCCN(C(=O)c2nn(C)cc2Cl)CC1` | -60.26% | -24.73% | -1.947% |
| `O=C(N1CCCC(n2cncn2)C1)C1(c2ccccc2F)CCCC1` (stereo not shown) | -17.42% | 19.82% | -20.82% |
| `CCC(C(=O)NCC1=CCCN(C)C1)c1ccccc1` (stereo not shown) | -0.8332% | 31.27% | -20.26% |
| `OCCN(Cc1nc(-c2ccc3c(c2)OCO3)no1)CC1CC1` | -18.56% | 7.025% | 2.496% |
| `O=C(Cc1ccc2c(c1)OCC2)Nc1nn[nH]n1` | -30.36% | 2.171% | 0.8403% |
| `O=C(O)C(F)(F)F.O=C(O)C(F)(F)F.O=C(O)C(F)(F)F.[H][C@@]12CN(Cc3cccnc3)C[C@]1([H])[C@H](OC)CCN2Cc1cnn(C)c1` | -0.5656% | -4.141% | -11.98% |
| `CCc1nnc(C(C)N2CCN(CCC(=O)NC3CC3)CC2)o1` (stereo not shown) | -32.65% | -7.463% | 10.36% |
| `CN(C)C(=O)N1CC(=O)NCC12CCN(C(=O)c1ccco1)C2` (stereo not shown) | -16.86% | 3.3% | -26.02% |
| `CCc1nccn1C1CCCN(C(=O)c2ccc(C(N)=O)cn2)C1` (stereo not shown) | 10.59% | 12.58% | 4.04% |
| `CCn1cc2c(n1)CN(S(=O)(=O)c1cccnc1)CC2COC.O=C(O)C(F)(F)F` (stereo not shown) | - | 10.65% | -13.52% |
| `CN(Cc1cnn(C)c1)C(=O)CN1CCCC1Cn1cncn1` (stereo not shown) | -21.92% | 4.731% | -3.714% |
| `COc1ccc(OC)c(C(C)Nc2nc3c(C)nn(C)c3c(=O)n2C)c1` (stereo not shown) | 0.2342% | -10.18% | 2.064% |
| `O=C(C1CCN(c2ncnc3cccc(F)c23)CC1)N1CCCC1` | -18.66% | 12.19% | 2.37% |
| `CC(C)C(=O)N1CCN(S(C)(=O)=O)CC2(CC(=O)N(C)C2)C1` (stereo not shown) | -11.92% | 16.19% | 10.78% |
| `O=C(c1cc[nH]n1)N1CCCC1C1CCN(Cc2ccccc2)CC1` (stereo not shown) | -13.7% | 21.12% | -1.458% |
| `Cc1ccc(NC(=O)N(C)Cc2cnn(C)c2)cc1OCC(F)F` | 3.587% | 3.007% | 3.159% |
| `O=C(O)C(F)(F)F.[H][C@]12CCN(C(=O)Cc3cccs3)C[C@@]1([H])OCCN(C)C2` | -41.5% | 32.46% | -11.1% |
| `O=C(NC1CCN(c2cccc(OC(F)(F)F)c2)C1=O)C1CCC1` (stereo not shown) | -31.74% | 12.09% | 7.558% |
| `CCN1C(=O)CCC12CCN(S(=O)(=O)c1ccccc1)CC2` | -13.99% | -4.964% | -22.21% |
| `CCn1cc2c(n1)CN(Cc1ccc(F)cc1)CC2COCC1CC1.O=C(O)C(F)(F)F` (stereo not shown) | -8.036% | -48.29% | 14.95% |
| `O=C(O)C(F)(F)F.[H][C@]12CCN(C(=O)Cc3cccc(F)c3)C[C@@]1([H])OCCN(CCOC)C2` | -26.1% | -7.95% | -6.515% |
| `COc1ccc(CCC(=O)N2CCNCC2C(=O)N2CCCC2)cc1` (stereo not shown) | 4.573% | 27.94% | -13.85% |
| `Cc1nc(C2CCCN2C(=O)c2ccc(N(C)C)nn2)no1` (stereo not shown) | - | -11.58% | 2.911% |
| `CN(C)CCN(C)C(=O)Nc1cc(F)cc(N2CCCC2)c1` | -11.92% | 13.48% | -1.872% |
| `CC(Nc1cccc2c1OCCO2)C(=O)NC(N)=O` (stereo not shown) | -8.29% | -3.796% | 9.341% |

7 of the entries, repeated:

| structure | T. brucei | Leishmania in macrophages | Toxoplasma |
|---|---|---|---|
| `OCCn1nccc1C1CCN(CCOc2ccc(Cl)cc2)CC1` | 19.82% | 43.73% | 2.999% |
| `O=C(C1CCN(c2ncnc3cccc(F)c23)CC1)N1CCCC1` | -18.66% | 12.19% | 2.37% |
| `Cc1nc(C)n(CC2CCCN2c2ccnc(-c3ccccc3)n2)n1` (stereo not shown) | 0.03474% | -6.883% | 1.741% |
| `COc1cc(CNc2nc(C3CC3)no2)cc(OC)c1OC` | -26.1% | -17.7% | 0.8291% |
| `Cc1nc(C2CCCN2C(=O)c2ccc(N(C)C)nn2)no1` (stereo not shown) | - | -11.58% | 2.911% |
| `Fc1ccc(C2(CNC3=NCCN3)CCCC2)cc1.I` | -21.25% | 17.02% | -8.489% |
| `Cc1cc(CS(=O)(=O)C(C)c2ccc(F)cc2)on1` (stereo not shown) | -20.86% | 3.873% | 5.605% |